Earlier results, collected in patent publication US11801253B2, “Method of safely and effectively treating and preventing secondary hyperparathyroidism in chronic kidney disease” (OPKO RENAL, LLC, priority 2007, dated 2023).
Some entries share one result that the patent states for a list of compounds.

Target: T1, VDR (Homo sapiens, UniProt P11473)
T1 sequence (P11473 1-427): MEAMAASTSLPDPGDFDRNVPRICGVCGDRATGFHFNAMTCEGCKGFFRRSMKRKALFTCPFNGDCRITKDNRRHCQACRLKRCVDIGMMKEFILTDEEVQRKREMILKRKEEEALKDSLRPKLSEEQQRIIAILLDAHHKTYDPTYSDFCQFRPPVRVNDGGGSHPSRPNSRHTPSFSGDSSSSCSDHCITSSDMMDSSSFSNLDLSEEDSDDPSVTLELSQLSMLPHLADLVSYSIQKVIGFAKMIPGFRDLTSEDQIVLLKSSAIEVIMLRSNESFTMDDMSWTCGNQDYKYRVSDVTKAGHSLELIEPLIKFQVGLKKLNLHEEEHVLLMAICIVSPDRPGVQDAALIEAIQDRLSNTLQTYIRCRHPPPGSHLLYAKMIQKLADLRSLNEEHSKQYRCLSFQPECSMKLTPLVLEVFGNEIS
Conditions: estimated; relative to Vitamin D hormones

In the case of `C=C1CC[C@H](O)C/C1=C/C=C1\CCC[C@]2(C)[C@@H]([C@H](C)CCCC(C)C)CC[C@@H]12` [Vitamin D3, cholecalciferol], the “affinity for the VDR, fold lower than those of the Vitamin D hormones” value is listed as “at least 100 fold”.
